Results: PubChem BioAssay (NCATS)
Inconclusive means that the source gave no clear call. Such entries were picked first, then a sample of the others. The source made the active and inactive calls. Calls follow the shape of the dose curve; as a rule, active = well fitted curve in either direction with a large enough effect (not every such curve was filed as active); inconclusive = small, poorly fitted or top-dose-only effect, or another doubt; inactive = flat fitted curve, though single readings scatter.

experiment: Stat Signaling Pathway (AID 446); details: ME-180 (cervical carcinoma) SIE beta-lactamase reporter, IL-6 stimulated, 5 h; at 7.69 µM (top of the series) unless noted;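 also: ME-180 cervical cancer cells given 40 pM IL-6 alongside compound; SIE-controlled beta-lactamase reporter measured as 460/530 nm FRET emission ratio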
In short: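 Normalization used AC90 stimulation (300 pM IL-6) and AC90 inhibition (125 nM pan-JAK inhibitor at 40 pM IL-6). The underlying signal is SIE-driven beta-lactamase in ME-180 cells after 5 h IL-6 exposure with compound.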
% is scaled to controls: 0 for no effect and ±100 for the full control effect.

activity, negative = inhibition, inactive:
Oc1ccc(Cc2nccc3cc(O)c(O)cc23)cc1O -2.43%
CC(C)NC(=O)N1CC2(CCN(C(=O)c3ccncc3)CC2)C1 7.63%
O=C1CCC(c2ccccc2)(c2ccccc2)CC1 1.75%
O=C(C[N+]12CN3CN(CN(C3)C1)C2)c1ccc(-c2ccccc2)cc1 0.439%
Cn1ncc2c(NCCc3ccccc3)nc(Cl)nc21 -19.5%
Cc1noc(C)c1-c1cc(NC2CCNCC2)ncn1 5.01%
O=c1c(-c2ccc(F)cc2)nc2cnc(N3CCOCC3)nc2n1C[C@H]1CCCO1 29.2%
Nc1nc(N)c(CCCCc2ccccc2)c(N)n1 1.49%
COc1ccc(-c2nc3cnc(OC)nc3n(C3CC3)c2=O)cc1 2.68%
CC1=C/C(=N/O)C([C@H]2C=C(C)CC(C)(C)[C@@H]2O)C(C)(C)C1 (stereo partly specified) 0.535%
O=C1CCC(c2ccccc2)=NN1c1nc2ccccc2s1 -10.7%
Oc1cccnc1CN1CCCCC1 16.8%
Nc1nc(SC/C=C\c2ccccc2)c2[nH]cnc2n1 1.2%
Cn1c(=O)c(-c2cccs2)nc2cnc(N3CCOCC3)nc21 -4.84%
CC(C)NC(=O)N1CCC2(CC1)CCN(C(=O)c1cccc(F)c1)CC2 7.13%
COc1ccccc1CCn1c(=O)c(-c2cccc(F)c2)nc2cncnc21 3.83%

activity, negative = inhibition, inconclusive:
O=C(Nc1cccc(F)c1)N1CCCC2(CCN(C(=O)c3ccncc3)CC2)C1 111% [activator]
COCCn1c(=O)c(CCc2ccccc2)nc2cnc(Nc3ccccc3)nc21 42.9% [activator]
N=C(N)SCc1cccc2c(=O)cc(-c3ccccc3)oc12 50.2% [activator]
COc1cccc(Cn2c(=O)c(-c3cccs3)nc3cnc(OCc4ccccc4)nc32)c1 39.9% [activator]
O=c1c(-c2ccc(Cl)cc2)nc2cnc(Nc3ccccc3)nc2n1C[C@H]1CCCO1 32.3% [activator]
CN(C)c1ncc2nc(-c3ccccc3)c(=O)n(-c3ccccc3)c2n1 72.3% [activator]
O=S(=O)(NCCNC/C=C\c1ccc(Br)cc1)c1cccc2cnccc12 -61.8% [inhibitor] [at 38 µM]
Cc1ccc(C)c(C(=N)c2ccccc2Cc2ccccc2)c1 15.4% [activator]
CC(=O)O[C@]1(C(C)=O)CC[C@@H]2[C@@H]3C=C(Cl)C4=CC(=O)[C@H]5C[C@@H]5[C@]4(C)[C@H]3CC[C@]21C -47% [inhibitor] [at 38 µM]
O=c1c(-c2cc(F)cc(F)c2)nc2cnc(N3CCOCC3)nc2n1C1CC1 105% [activator]
O=C(CSc1nc2ccccc2s1)c1sc2sc3ccccc3[n+]2c1O -30.1% [inhibitor]
C/C(C[n+]1ccccc1)=N\N=C(N)N -37.8% [inhibitor]
CN1[C@@H]2CC[C@H]1CC(NC(=O)c1nn(C)c3ccccc13)C2 (stereo partly specified) -55% [inhibitor] [at 38 µM]
COC(=O)[C@H](N)Cc1ccc(Cl)cc1 88.7% [activator] [at 38 µM]
COc1ccc(-n2c(C)c(C(C)=O)c3cc(O)ccc32)cc1 -23.2% [inhibitor] [at 17.2 µM]
Cn1cc(-c2nc3cnc(N4CCNCC4)nc3n(CCC#N)c2=O)c2ccccc21 30.1% [activator]
C=CCN1CCc2c(cc(O)c(O)c2Cl)[C@H](c2ccccc2)C1 -49% [inhibitor] [at 38 µM]
O=c1c2ccccc2sc2c(CO)ccc(NCCN3CCCCC3)c12 40.8% [activator]
O=C1C(=O)c2ccccc2C(O)=C1C(C1=C(O)c2ccccc2C(=O)C1=O)c1ccc(Cl)cc1 -46.3% [inhibitor]
CNC(=O)[C@@H]1O[C@@H](n2cnc3c(N)ncnc32)[C@@H](O)[C@H]1O 27.7% [activator] [at 38 µM]

Already shown: 2 of the compounds above.
activity, negative = inhibition, inconclusive:
O=C1C(=O)c2ccccc2C(O)=C1C(C1=C(O)c2ccccc2C(=O)C1=O)c1ccc(Cl)cc1 -46.3% [inhibitor]
CNC(=O)[C@@H]1O[C@@H](n2cnc3c(N)ncnc32)[C@@H](O)[C@H]1O 27.7% [activator] [at 38 µM]
